Test results published in publication PMC8961908.
Where two headings read alike, the source gives them in different places. No constants are given. Whether binding was seen depends on the method and setting. Binding seen in cells or lysates may run through a third protein. Here binding means that the protein was enriched with, or labelled near, the bait; the list need not be complete. For some of these results: Where a sequence is shown, tags or fusion partners need not be part of it. Values belong to the molecule of their own block, whether it stands above or below them.

The chains behind the UniProt entries cited, without tags or fusion partners.
UniProt O95197: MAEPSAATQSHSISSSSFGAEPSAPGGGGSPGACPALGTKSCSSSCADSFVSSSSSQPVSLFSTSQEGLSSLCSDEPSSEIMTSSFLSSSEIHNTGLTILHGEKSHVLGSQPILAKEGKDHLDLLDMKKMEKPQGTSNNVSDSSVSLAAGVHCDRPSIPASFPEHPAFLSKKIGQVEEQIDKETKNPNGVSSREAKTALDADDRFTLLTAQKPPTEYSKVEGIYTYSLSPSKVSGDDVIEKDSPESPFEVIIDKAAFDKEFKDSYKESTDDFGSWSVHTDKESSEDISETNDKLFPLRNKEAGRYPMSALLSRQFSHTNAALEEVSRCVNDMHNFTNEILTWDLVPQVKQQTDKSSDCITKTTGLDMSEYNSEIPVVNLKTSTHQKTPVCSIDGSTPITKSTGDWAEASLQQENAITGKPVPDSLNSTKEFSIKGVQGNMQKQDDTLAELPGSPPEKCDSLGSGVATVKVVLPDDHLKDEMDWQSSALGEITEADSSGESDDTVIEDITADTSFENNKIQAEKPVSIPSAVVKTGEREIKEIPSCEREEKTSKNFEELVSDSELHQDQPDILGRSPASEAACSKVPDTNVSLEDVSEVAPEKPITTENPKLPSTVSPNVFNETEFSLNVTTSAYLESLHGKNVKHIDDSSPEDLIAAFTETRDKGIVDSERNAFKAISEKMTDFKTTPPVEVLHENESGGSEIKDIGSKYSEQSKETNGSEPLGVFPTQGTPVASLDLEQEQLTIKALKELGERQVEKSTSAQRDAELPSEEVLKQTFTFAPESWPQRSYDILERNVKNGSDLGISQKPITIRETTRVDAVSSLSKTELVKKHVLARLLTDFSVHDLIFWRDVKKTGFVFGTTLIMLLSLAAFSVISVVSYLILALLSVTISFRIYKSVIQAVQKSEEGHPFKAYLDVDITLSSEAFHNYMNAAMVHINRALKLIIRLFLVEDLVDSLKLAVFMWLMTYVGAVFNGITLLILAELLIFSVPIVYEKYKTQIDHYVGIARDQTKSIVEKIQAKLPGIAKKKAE

What was measured:
[1] = molecular target: ADP-ribosylation factor-like 6 interacting protein 1 (ARL6IP1), endogenously C-terminally tagged (human (endogenous in U-2 OS)) (UniProt Q15041); experiment: affinity purification with mass spectrometry; tandem-affinity purification of endogenously tagged ARL6IP1 from U-2 OS lysate (1% NP-40 lysis buffer): anti-FLAG M2 agarose, elution with 3xFLAG peptide, then SPOT-trap magnetic agarose, 4 °C; in-gel tryptic digestion and label-free quantitation; unmodified U-2 OS cells as negative control
[2] = molecular target: ADP-ribosylation factor-like 6 interacting protein 1 (ARL6IP1), endogenously C-terminally tagged (human (endogenous in U-2 OS)) (UniProt Q15041); experiment: as above; remark: listed apart in the source

B2: extended-synaptotagmin 1 (E-SYT1) (protein, UniProt Q9BSJ8 1-1104)
chain: MERSPGEGPSPSPMDQPSAPSDPTDQPPAAHAKPDPGSGGQPAGPGAAGEALAVLTSFGRRLLVLIPVYLAGAVGLSVGFVLFGLALYLGWRRVRDEKERSLRAARQLLDDEEQLTAKTLYMSHRELPAWVSFPDVEKAEWLNKIVAQVWPFLGQYMEKLLAETVAPAVRGSNPHLQTFTFTRVELGEKPLRIIGVKVHPGQRKEQILLDLNISYVGDVQIDVEVKKYFCKAGVKGMQLHGVLRVILEPLIGDLPFVGAVSMFFIRRPTLDINWTGMTNLLDIPGLSSLSDTMIMDSIAAFLVLPNRLLVPLVPDLQDVAQLRSPLPRGIIRIHLLAARGLSSKDKYVKGLIEGKSDPYALVRLGTQTFCSRVIDEELNPQWGETYEVMVHEVPGQEIEVEVFDKDPDKDDFLGRMKLDVGKVLQASVLDDWFPLQGGQGQVHLRLEWLSLLSDAEKLEQVLQWNWGVSSRPDPPSAAILVVYLDRAQDLPLKKGNKEPNPMVQLSIQDVTQESKAVYSTNCPVWEEAFRFFLQDPQSQELDVQVKDDSRALTLGALTLPLARLLTAPELILDQWFQLSSSGPNSRLYMKLVMRILYLDSSEICFPTVPGCPGAWDVDSENPQRGSSVDAPPRPCHTTPDSQFGTEHVLRIHVLEAQDLIAKDRFLGGLVKGKSDPYVKLKLAGRSFRSHVVREDLNPRWNEVFEVIVTSVPGQELEVEVFDKDLDKDDFLGRCKVRLTTVLNSGFLDEWLTLEDVPSGRLHLRLERLTPRPTAAELEEVLQVNSLIQTQKSAELAAALLSIYMERAEDLPLRKGTKHLSPYATLTVGDSSHKTKTISQTSAPVWDESASFLIRKPHTESLELQVRGEGTGVLGSLSLPLSELLVADQLCLDRWFTLSSGQGQVLLRAQLGILVSQHSGVEAHSHSYSHSSSSLSEEPELSGGPPHITSSAPELRQRLTHVDSPLEAPAGPLGQVKLTLWYYSEERKLVSIVHGCRSLRQNGRDPPDPYVSLLLLPDKNRGTKRRTSQKKRTLSPEFNERFEWELPLDEAQRRKLDVSVKSNSSFMSRERELLGKVQLDLAETDLSQGVARWYDLMDNKDKGSS
binding [2]: binds

B3: inositol polyphosphate 5-phosphatase K (INPP5K) (enzyme, UniProt Q9BT40 1-448)
chain: MSSRKLSGPKGRRLSIHVVTWNVASAAPPLDLSDLLQLNNRNLNLDIYVIGLQELNSGIISLLSDAAFNDSWSSFLMDVLSPLSFIKVSHVRMQGILLLVFAKYQHLPYIQILSTKSTPTGLFGYWGNKGGVNICLKLYGYYVSIINCHLPPHISNNYQRLEHFDRILEMQNCEGRDIPNILDHDLIIWFGDMNFRIEDFGLHFVRESIKNRCYGGLWEKDQLSIAKKHDPLLREFQEGRLLFPPTYKFDRNSNDYDTSEKKRKPAWTDRILWRLKRQPCAGPDTPIPPASHFSLSLRGYSSHMTYGISDHKPVSGTFDLELKPLVSAPLIVLMPEDLWTVENDMMVSYSSTSDFPSSPWDWIGLYKVGLRDVNDYVSYAWVGDSKVSCSDNLNQVYIDISNIPTTEDEFLLCYYSNSLRSVVGISRPFQIPPGSLREDPLGEAQPQI
binding [2]: binds

The remaining lines, values ahead:

binding [1]: binds
Molecule: reticulon 3 (RTN3) (from UniProt O95197 1-1032)

binding [2]: binds
B1: oxysterol-binding protein-related protein 8 (ORP8), endogenous (protein, UniProt Q9BZF1 1-889)
chain: MEGGLADGEPDRTSLLGDSKDVLGPSTVVANSDESQLLTPGKMSQRQGKEAYPTPTKDLHQPSLSPASPHSQGFERGKEDISQNKDESSLSMSKSKSESKLYNGSEKDSSTSSKLTKKESLKVQKKNYREEKKRATKELLSTITDPSVIVMADWLKIRGTLKSWTKLWCVLKPGVLLIYKTQKNGQWVGTVLLNACEIIERPSKKDGFCFKLFHPLEQSIWAVKGPKGEAVGSITQPLPSSYLIIRATSESDGRCWMDALELALKCSSLLKRTMIREGKEHDLSVSSDSTHVTFYGLLRANNLHSGDNFQLNDSEIERQHFKDQDMYSDKSDKENDQEHDESDNEVMGKSEESDTDTSERQDDSYIEPEPVEPLKETTYTEQSHEELGEAGEASQTETVSEENKSLIWTLLKQVRPGMDLSKVVLPTFILEPRSFLDKLSDYYYHADFLSEAALEENPYFRLKKVVKWYLSGFYKKPKGLKKPYNPILGETFRCLWIHPRTNSKTFYIAEQVSHHPPISAFYVSNRKDGFCLSGSILAKSKFYGNSLSAILEGEARLTFLNRGEDYVMTMPYAHCKGILYGTMTLELGGTVNITCQKTGYSAILEFKLKPFLGSSDCVNQISGKLKLGKEVLATLEGHWDSEVFITDKKTDNSEVFWNPTPDIKQWRLIRHTVKFEEQGDFESEKLWQRVTRAINAKDQTEATQEKYVLEEAQRQAARDRKTKNEEWSCKLFELDPLTGEWHYKFADTRPWDPLNDMIQFEKDGVIQTKVKHRTPMVSVPKMKHKPTRQQKKVAKGYSSPEPDIQDSSGSEAQSVKPSTRRKKGIELGDIQSSIESIKQTQEEIKRNIMALRNHLVSSTPATDYFLQQKDYFIIFLLILLQVIINFMFK
